The list shows a part of the results.
Experiments:
Assay in all cases: log2 fold change, soluble protein after heating vs DMSO (PISA); higher = thermal stabilisation; K562 cells, 10 uM, 30 min; active = over 0.2 and 3.5 SD of the protein, either way, in both replicates (recomputed)
[1] = compound: COC1=CC=C(C=C1)CN2C=CC3=C2C=C(C=C3)C(=O)NO
In short: (§1)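 For each measurement, 10 μM compound was applied for 30 min to K562 cells at 2×10^6 cells/mL. Aliquots were heated for 3 min across 48°C-58°C, pooled, and extracted in PBS with 0.5% NP-40 at 4°C; the supernatant after 21,000xg for 90 min was soluble protein. This was quantified by TMTpro 16plex LC-MS/MS with channel sums equalised, and thermal stability was reported relative to control samples from duplicates, on a log2 fold-change scale.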

Sequences of proteins named here, by UniProt entry; tags and fusion partners are left off. A change or cut given only in a name is not applied to a line headed by its entry.
UniProt Q8IXV7: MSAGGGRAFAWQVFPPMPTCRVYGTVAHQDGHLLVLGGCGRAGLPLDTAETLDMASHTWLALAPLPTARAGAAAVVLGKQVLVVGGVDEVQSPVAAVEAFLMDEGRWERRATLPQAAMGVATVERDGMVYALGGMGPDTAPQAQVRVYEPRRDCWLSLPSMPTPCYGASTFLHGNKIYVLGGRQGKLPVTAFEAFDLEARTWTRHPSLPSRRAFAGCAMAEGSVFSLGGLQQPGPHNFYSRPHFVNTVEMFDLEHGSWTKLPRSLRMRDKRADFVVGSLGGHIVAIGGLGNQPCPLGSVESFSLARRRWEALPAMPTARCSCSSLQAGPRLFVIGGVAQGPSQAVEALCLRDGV
UniProt Q15058: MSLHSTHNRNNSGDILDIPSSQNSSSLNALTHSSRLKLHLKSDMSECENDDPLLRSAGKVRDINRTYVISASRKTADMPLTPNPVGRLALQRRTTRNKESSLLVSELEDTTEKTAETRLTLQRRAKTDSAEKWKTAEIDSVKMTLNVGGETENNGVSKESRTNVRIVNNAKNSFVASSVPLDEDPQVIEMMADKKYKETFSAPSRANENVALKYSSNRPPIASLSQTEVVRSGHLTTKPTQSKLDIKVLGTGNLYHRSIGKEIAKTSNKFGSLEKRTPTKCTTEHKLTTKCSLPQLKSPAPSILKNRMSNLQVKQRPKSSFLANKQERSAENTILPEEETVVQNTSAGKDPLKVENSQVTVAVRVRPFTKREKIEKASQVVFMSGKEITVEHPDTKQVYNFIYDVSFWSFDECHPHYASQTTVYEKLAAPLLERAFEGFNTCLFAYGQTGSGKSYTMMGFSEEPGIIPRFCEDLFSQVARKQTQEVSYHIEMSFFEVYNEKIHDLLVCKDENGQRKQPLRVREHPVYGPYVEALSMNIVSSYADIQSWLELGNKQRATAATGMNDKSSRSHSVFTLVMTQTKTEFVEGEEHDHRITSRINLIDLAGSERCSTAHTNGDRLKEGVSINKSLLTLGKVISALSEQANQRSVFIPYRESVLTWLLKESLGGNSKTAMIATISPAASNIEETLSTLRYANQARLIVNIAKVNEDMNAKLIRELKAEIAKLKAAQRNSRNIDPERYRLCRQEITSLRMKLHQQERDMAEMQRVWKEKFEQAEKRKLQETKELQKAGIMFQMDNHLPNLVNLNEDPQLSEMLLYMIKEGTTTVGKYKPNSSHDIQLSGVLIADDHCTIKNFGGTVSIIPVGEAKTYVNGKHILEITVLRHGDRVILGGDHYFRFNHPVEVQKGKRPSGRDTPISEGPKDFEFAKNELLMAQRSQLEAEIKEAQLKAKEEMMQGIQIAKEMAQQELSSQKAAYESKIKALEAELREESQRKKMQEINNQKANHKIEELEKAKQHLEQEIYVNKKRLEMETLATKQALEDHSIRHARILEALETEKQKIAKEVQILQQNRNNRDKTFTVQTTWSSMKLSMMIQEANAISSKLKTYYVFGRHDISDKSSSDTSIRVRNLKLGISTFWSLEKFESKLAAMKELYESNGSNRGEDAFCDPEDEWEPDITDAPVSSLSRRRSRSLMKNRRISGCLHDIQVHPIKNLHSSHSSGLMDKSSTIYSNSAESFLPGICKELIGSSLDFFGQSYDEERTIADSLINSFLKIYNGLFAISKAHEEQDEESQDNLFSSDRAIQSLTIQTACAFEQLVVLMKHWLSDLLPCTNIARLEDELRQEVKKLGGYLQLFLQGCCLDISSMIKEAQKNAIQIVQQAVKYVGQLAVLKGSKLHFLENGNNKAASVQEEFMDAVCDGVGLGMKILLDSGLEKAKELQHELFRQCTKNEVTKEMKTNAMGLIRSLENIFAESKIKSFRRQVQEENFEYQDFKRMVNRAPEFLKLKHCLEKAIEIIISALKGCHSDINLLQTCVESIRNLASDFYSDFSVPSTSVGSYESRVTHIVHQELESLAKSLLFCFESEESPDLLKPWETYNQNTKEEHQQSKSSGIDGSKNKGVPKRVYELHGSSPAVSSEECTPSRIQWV
UniProt O00180: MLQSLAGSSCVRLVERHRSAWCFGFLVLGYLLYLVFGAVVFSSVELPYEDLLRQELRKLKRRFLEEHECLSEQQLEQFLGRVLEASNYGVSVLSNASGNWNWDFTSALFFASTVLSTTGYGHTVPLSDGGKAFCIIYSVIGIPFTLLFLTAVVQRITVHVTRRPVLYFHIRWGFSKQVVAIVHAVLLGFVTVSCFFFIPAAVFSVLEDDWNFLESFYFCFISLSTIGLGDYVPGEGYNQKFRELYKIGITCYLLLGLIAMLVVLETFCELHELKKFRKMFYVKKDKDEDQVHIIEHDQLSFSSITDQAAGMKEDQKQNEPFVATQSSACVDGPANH
UniProt Q9BXK1: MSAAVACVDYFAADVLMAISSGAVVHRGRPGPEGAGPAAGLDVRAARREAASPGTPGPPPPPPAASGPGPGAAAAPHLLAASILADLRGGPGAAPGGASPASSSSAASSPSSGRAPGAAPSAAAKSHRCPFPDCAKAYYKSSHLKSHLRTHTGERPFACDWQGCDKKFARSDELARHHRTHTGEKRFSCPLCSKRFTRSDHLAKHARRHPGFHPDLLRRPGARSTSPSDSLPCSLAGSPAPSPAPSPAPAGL
UniProt Q9NVX7: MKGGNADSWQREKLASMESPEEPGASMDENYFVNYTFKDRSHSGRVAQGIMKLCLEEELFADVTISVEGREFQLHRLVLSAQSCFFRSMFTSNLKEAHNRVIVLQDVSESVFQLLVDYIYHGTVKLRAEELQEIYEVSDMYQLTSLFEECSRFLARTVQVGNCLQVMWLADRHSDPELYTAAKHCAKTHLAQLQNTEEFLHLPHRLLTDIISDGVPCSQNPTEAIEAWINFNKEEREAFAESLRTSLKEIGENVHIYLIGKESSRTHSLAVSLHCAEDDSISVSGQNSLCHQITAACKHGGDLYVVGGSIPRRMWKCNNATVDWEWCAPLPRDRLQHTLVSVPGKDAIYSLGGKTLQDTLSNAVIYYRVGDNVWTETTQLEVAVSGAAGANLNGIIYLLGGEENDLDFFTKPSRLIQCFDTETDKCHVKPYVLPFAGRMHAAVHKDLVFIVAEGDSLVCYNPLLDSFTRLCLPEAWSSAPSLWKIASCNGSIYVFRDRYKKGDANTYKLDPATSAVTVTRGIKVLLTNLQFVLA
UniProt Q8IXQ5, whole entry, looked up: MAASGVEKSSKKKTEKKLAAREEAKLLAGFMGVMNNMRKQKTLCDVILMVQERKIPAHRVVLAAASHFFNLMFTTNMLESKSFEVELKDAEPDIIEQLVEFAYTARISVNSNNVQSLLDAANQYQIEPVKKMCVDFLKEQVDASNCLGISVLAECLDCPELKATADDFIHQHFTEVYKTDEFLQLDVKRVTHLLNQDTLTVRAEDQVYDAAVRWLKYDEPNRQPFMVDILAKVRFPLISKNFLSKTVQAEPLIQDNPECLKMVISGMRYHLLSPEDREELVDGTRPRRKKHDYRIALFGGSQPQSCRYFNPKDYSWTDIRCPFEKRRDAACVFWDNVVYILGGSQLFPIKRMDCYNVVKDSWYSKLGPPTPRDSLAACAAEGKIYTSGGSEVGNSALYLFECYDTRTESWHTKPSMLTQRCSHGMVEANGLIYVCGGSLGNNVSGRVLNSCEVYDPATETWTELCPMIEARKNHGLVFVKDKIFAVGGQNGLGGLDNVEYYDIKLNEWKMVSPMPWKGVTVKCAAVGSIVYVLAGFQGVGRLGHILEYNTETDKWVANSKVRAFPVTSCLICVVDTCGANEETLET
UniProt Q9BQ90: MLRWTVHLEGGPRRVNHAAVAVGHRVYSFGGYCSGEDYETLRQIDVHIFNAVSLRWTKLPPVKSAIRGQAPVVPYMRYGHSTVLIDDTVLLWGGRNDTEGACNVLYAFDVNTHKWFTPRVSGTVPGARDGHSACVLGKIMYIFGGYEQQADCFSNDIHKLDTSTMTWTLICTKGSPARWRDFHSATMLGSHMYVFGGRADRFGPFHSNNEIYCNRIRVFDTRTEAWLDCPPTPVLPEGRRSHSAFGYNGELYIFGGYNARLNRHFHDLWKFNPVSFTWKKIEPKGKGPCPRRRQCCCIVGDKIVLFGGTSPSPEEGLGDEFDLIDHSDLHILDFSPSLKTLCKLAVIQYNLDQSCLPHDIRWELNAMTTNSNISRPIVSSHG
UniProt Q4G0X4: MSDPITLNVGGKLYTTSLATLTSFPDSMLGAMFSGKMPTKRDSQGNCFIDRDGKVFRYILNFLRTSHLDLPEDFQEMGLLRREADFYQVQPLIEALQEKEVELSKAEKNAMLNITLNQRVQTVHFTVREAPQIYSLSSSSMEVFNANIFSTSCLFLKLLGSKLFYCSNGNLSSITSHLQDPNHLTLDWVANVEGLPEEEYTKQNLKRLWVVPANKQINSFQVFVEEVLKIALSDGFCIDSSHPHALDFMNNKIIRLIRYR
UniProt O00522: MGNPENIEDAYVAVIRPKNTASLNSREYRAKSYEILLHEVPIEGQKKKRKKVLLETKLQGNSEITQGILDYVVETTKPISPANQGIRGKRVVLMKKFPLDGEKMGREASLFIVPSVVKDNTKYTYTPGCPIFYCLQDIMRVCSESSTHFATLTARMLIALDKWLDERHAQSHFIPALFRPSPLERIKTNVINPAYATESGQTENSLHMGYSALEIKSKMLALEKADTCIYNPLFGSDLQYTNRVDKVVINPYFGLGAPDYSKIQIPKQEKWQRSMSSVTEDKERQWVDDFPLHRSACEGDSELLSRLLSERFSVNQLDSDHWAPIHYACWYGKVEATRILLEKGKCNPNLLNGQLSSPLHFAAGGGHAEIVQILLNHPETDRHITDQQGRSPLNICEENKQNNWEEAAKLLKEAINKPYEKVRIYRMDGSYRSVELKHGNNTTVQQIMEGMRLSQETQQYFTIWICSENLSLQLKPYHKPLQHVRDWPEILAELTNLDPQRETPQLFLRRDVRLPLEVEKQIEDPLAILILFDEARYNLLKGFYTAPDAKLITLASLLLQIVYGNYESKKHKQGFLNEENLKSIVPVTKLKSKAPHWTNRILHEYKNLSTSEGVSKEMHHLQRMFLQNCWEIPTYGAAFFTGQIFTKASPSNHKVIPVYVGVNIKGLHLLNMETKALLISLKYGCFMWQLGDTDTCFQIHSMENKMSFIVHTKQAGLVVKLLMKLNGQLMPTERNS
UniProt Q92845: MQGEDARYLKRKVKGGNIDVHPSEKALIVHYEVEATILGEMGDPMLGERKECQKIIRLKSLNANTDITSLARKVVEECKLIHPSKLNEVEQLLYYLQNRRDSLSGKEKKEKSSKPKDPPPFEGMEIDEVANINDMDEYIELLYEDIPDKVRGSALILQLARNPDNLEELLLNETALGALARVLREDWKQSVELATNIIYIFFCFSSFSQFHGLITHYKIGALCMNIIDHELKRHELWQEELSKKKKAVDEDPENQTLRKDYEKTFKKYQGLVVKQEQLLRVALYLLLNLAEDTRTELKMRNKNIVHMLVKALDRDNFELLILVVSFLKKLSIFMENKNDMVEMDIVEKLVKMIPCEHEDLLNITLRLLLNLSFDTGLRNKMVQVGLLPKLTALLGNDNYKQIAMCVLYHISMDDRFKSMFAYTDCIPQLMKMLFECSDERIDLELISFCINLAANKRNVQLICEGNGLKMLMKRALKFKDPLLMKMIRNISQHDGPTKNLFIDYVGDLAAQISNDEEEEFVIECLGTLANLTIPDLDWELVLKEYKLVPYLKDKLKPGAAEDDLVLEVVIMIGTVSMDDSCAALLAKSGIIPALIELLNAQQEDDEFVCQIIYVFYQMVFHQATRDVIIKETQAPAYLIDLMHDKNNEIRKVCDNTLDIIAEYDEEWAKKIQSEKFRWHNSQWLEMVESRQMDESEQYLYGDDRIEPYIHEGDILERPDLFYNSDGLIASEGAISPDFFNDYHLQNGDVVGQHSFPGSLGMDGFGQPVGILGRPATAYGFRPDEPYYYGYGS

filanesib = compound: CON(C)C(=O)N1N=C(c2cc(F)ccc2F)S[C@@]1(CCCN)c1ccccc1 [filanesib]
In short: as §1

zotarolimus = compound: CO[C@H]1C[C@@H]2CC[C@@H](C)[C@@](O)(O2)C(=O)C(=O)N2CCCC[C@H]2C(=O)O[C@H]([C@H](C)C[C@@H]2CC[C@H](n3cnnn3)[C@H](OC)C2)CC(=O)[C@H](C)/C=C(\C)[C@@H](O)[C@@H](OC)C(=O)[C@H](C)C[C@H](C)/C=C/C=C/C=C/1C [zotarolimus]
In short: as §1

idasanutlin = compound: COc1cc(C(=O)O)ccc1NC(=O)[C@@H]1N[C@@H](CC(C)(C)C)[C@](C#N)(c2ccc(Cl)cc2F)[C@H]1c1cccc(Cl)c1F [idasanutlin]
In short: as §1

alisertib = compound: COc1cc(Nc2ncc3c(n2)-c2ccc(Cl)cc2C(c2c(F)cccc2OC)=NC3)ccc1C(=O)O [alisertib]
In short: as §1

[2] = compound: COc1cccc2cc(-c3nc([C@H]4CC[C@H](C(=O)O)CC4)n4ncnc(N)c34)[nH]c12
In short: as §1

pictilisib = compound: CS(=O)(=O)N1CCN(Cc2cc3nc(-c4cccc5[nH]ncc45)nc(N4CCOCC4)c3s2)CC1 [pictilisib]
In short: as §1

[3] = compound: CS(=O)(=O)c1ccc(-c2cnc(N)c(C(=O)Nc3ccccc3)n2)cc1
In short: as §1

crizotinib = compound: C[C@@H](Oc1cc(-c2cnn(C3CCNCC3)c2)cnc1N)c1c(Cl)ccc(F)c1Cl [crizotinib]
In short: as §1

[4] = compound: C[C@H](C1=CC=C(C=C1)C(=O)NC2=C3C=CNC3=NC=C2)N
In short: as §1

duvelisib = compound: C[C@H](Nc1ncnc2nc[nH]c12)c1cc2cccc(Cl)c2c(=O)n1-c1ccccc1 [duvelisib]
In short: as §1

gandotinib = compound: Cc1cc(Nc2cc(CN3CCOCC3)c3nc(C)c(Cc4ccc(Cl)cc4F)n3n2)n[nH]1 [gandotinib]
In short: as §1

tozasertib = compound: Cc1cc(Nc2cc(N3CCN(C)CC3)nc(Sc3ccc(NC(=O)C4CC4)cc3)n2)n[nH]1 [tozasertib]
In short: as §1

[5] = compound: Cc1cc(SCc2sc(-c3ccc(C(F)(F)F)cc3)nc2C)ccc1OCC(=O)O
In short: as §1

doramapimod = compound: Cc1ccc(-n2nc(C(C)(C)C)cc2NC(=O)Nc2ccc(OCCN3CCOCC3)c3ccccc23)cc1 [doramapimod]
In short: as §1

ispinesib = compound: Cc1ccc(C(=O)N(CCCN)[C@@H](c2nc3cc(Cl)ccc3c(=O)n2Cc2ccccc2)C(C)C)cc1 [ispinesib]
In short: as §1

[6] = compound: COc1cc2nc(-c3cc(F)ccc3O)nc(N[C@@H]3CNC[C@H]3C(C)(C)O)c2cc1OC
In short: as §1

lapatinib = compound: CS(=O)(=O)CCNCc1ccc(-c2ccc3ncnc(Nc4ccc(OCc5cccc(F)c5)c(Cl)c4)c3c2)o1 [lapatinib]
In short: as §1

[7] = compound: C[C@@H]1COCCN1C2=NC(=NC(=C2)C3(CC3)S(=O)(=O)C)C4=C5C=CNC5=CC=C4
In short: as §1

gefitinib = compound: COc1cc2ncnc(Nc3ccc(F)c(Cl)c3)c2cc1OCCCN1CCOCC1 [gefitinib]
In short: as §1

Measured: log2 fold change

KLHDC8B (UniProt Q8IXV7)
inactive: [1] -0.097 | filanesib -0.07 | zotarolimus 0.032 | idasanutlin -0.096 | alisertib 0.055 | [2] -0.101 | pictilisib 0.236 | [3] -0.056 | crizotinib -0.225 | [4] 0.152 | duvelisib 0.121 | gandotinib -0.08 | tozasertib -0.192 | [5] 0.014 | doramapimod 0.004 | ispinesib 0.088

KIF14 (UniProt Q15058)
inactive: [1] -0.048 | filanesib 0.076 | zotarolimus 0.17 | idasanutlin 0.219 | alisertib -0.022 | [6] -0.108 | [2] -0.285 | lapatinib -0.214 | [3] 0.018 | crizotinib -0.091 | [7] -0.042 | [4] 0.685 | duvelisib -0.065 | [5] -0.087 | doramapimod 0.001

JPT2 isoform 2 (UniProt Q9H910)
inactive: [1] -0.05 | filanesib -0.118 | idasanutlin 0.288 | alisertib 0.111 | [6] 0.046 | gefitinib 0.091 | [2] -0.013 | lapatinib -0.072 | [3] -0.052 | crizotinib -0.083 | tozasertib -0.149 | doramapimod 0.05

KNL1 (UniProt Q8NG31)
inactive: [1] 0.043 | filanesib -0.032 | zotarolimus 0.027 | alisertib -0.035 | [2] 0.173 | pictilisib 0.177 | [3] 0.159 | crizotinib -0.192 | [7] -0.258 | [4] -0.134 | duvelisib 0.123 | gandotinib 0.141 | tozasertib -0.059 | [5] -0.042 | doramapimod 0.238 | ispinesib -0.374

KPNA6 (UniProt O60684)
inactive: [1] 0.193 | filanesib 0.115 | zotarolimus 0.169 | idasanutlin -0.031 | alisertib -0.01 | [6] 0.056 | gefitinib 0.048 | [2] -0.066 | lapatinib -0.018 | pictilisib -0.017 | [3] -0.01 | crizotinib -0.11 | [7] -0.011 | [4] 0.138 | gandotinib -0.028 | [5] 0.07 | doramapimod 0.046 | ispinesib -0.202

KCNK1 (UniProt O00180)
inactive: [1] -0.02 | filanesib -0.083 | zotarolimus 0 | [6] 0.092 | gefitinib -0.097 | lapatinib -0.087 | pictilisib 0.077 | [3] 0.052 | crizotinib 0.267 | [7] 0.059 | [4] 0.136 | duvelisib -0.168 | gandotinib 0.071 | [5] -0.102 | doramapimod -0.087 | ispinesib 0

Quoted from the entries so far (2 entries):
KNL1 (UniProt Q8NG31)
inactive: [1] 0.043 | filanesib -0.032 | zotarolimus 0.027 | alisertib -0.035 | [2] 0.173 | pictilisib 0.177 | [3] 0.159 | crizotinib -0.192 | [7] -0.258 | [4] -0.134 | duvelisib 0.123 | gandotinib 0.141 | tozasertib -0.059 | [5] -0.042 | doramapimod 0.238 | ispinesib -0.374

KPNA6 (UniProt O60684)
inactive: [1] 0.193 | filanesib 0.115 | zotarolimus 0.169 | idasanutlin -0.031 | alisertib -0.01 | [6] 0.056 | gefitinib 0.048 | [2] -0.066 | lapatinib -0.018 | pictilisib -0.017 | [3] -0.01 | crizotinib -0.11 | [7] -0.011 | [4] 0.138 | gandotinib -0.028 | [5] 0.07 | doramapimod 0.046 | ispinesib -0.202

The list goes on.

KLF16 (UniProt Q9BXK1)
inactive: [1] 0.117 | filanesib 0.154 | idasanutlin 0.091 | alisertib -0.077 | [6] -0.07 | gefitinib 0.021 | [2] 0.04 | lapatinib 0.042 | pictilisib -0.027 | [3] -0.063 | crizotinib -0.02 | duvelisib -0.097 | gandotinib 0.071 | tozasertib 0.047 | [5] 0.041 | doramapimod 0.138

KIF21A isoform 4 (UniProt Q7Z4S6)
inactive: [1] 0.014 | filanesib 0.028 | zotarolimus 0.051 | idasanutlin 0.07 | alisertib 0.051 | [6] 0.163 | gefitinib -0.028 | [2] -0.126 | lapatinib 0.001 | pictilisib 0.037 | [3] 0.092 | crizotinib -0.039 | [7] 0.027 | [4] 0.207 | gandotinib -0.001 | [5] 0.044 | doramapimod 0.047 | ispinesib -0.153

KIF1C (UniProt O43896)
inactive: [1] -0.287 | filanesib 0.481 | zotarolimus 0.043 | [3] -0.105 | crizotinib -0.321 | [4] -0.083 | doramapimod 0.296

JAK3 (UniProt P52333)
inactive: [1] -0.216 | filanesib -0.019 | zotarolimus 0.018 | alisertib 0.052 | [6] -0.083 | gefitinib -0.047 | [2] -0.02 | lapatinib 0.01 | pictilisib -0.056 | [3] 0.001 | crizotinib 0.048 | [7] 0.142 | [4] -0.062 | gandotinib -0.132 | [5] 0.135 | doramapimod -0.071 | ispinesib 0.087

KBTBD4 isoform 2 (UniProt Q9NVX7)
inactive: [1] 0.021 | filanesib -0.099 | zotarolimus -0.004 | idasanutlin -0.043 | alisertib -0.014 | gefitinib 0.022 | [2] 0.06 | [3] 0.114 | crizotinib 0.12 | [7] 0.03 | [4] -0.002 | duvelisib 0.132 | tozasertib 0.007 | [5] -0.014 | doramapimod 0.038 | ispinesib -0.088

KSR1 (UniProt Q8IVT5)
inactive: [1] 0.015 | filanesib 0.033 | zotarolimus 0.016 | idasanutlin 0.034 | alisertib 0.123 | [6] -0.329 | gefitinib -0.028 | [2] 0.126 | lapatinib 0.087 | pictilisib 0.176 | [3] -0.017 | crizotinib -0.287 | [7] 0.036 | [4] 0.047 | gandotinib -0.067 | [5] -0.017 | doramapimod 0.052 | ispinesib -0.113

KLHL7 isoform 3 (UniProt Q8IXQ5)
inactive: [1] 0.007 | filanesib 0.074 | zotarolimus -0.03 | idasanutlin 0.065 | alisertib -0.042 | [6] 0.076 | gefitinib 0.063 | [2] -0.191 | lapatinib 0.071 | [3] -0.028 | crizotinib 0.081 | [7] 0.017 | [4] 0.035 | duvelisib 0.08 | [5] 0.066 | doramapimod -0.015

KLHDC3 (UniProt Q9BQ90)
inactive: [1] 0.215 | filanesib 0 | zotarolimus -0.021 | idasanutlin 0.015 | [6] 0.117 | gefitinib 0.062 | lapatinib 0.003 | pictilisib -0.009 | [3] 0.057 | crizotinib 0.052 | [7] 0.032 | [4] 0.088 | duvelisib 0.02 | gandotinib -0.208 | tozasertib 0.028 | [5] 0.051 | doramapimod -0.047 | ispinesib 0

KCTD21 (UniProt Q4G0X4)
inactive: filanesib -0.06 | idasanutlin -0.267 | [3] 0.11

KIAA1109 (UniProt Q2LD37)
inactive: [1] 0.174 | filanesib -0.353 | pictilisib 0.022 | [3] 0.163 | crizotinib -0.074 | gandotinib -0.003 | doramapimod 0.075

KRIT1 (UniProt O00522)
inactive: filanesib 0.062 | zotarolimus 0.126 | [6] 0.237 | gefitinib 0.38 | lapatinib -0.032 | pictilisib 0.084 | [3] 0.179 | [7] -0.2 | [4] 0.202 | duvelisib 0.078 | gandotinib -0.129 | [5] -0.145 | ispinesib -0.061

KIFAP3 (UniProt Q92845)
inactive: [1] 0.17 | gefitinib -0.1 | crizotinib -0.111 | [7] -0.173 | doramapimod 0.127

KIDINS220 isoform 2 (UniProt Q9ULH0)
inactive: [1] -0.155 | filanesib 0.192 | gefitinib 0.162 | [3] 0.204 | crizotinib 0.138 | [7] -0.111 | duvelisib 0.183 | tozasertib -0.208 | [5] -0.148 | doramapimod 0.023

KMT2C isoform 3 (UniProt Q8NEZ4)
inactive: filanesib 0.029 | zotarolimus -0.028 | idasanutlin 0.012 | alisertib -0.028 | gefitinib 0.058 | [2] -0.027 | pictilisib 0.229 | [3] 0.013 | [7] 0.021 | [4] 0.022 | gandotinib -0.106 | [5] -0.048 | ispinesib -0.235

KAT8 isoform 2 (UniProt Q9H7Z6)
inactive: filanesib -0.001 | zotarolimus -0.188 | idasanutlin 0.002 | alisertib 0.069 | [6] 0 | gefitinib 0.027 | [2] 0.036 | lapatinib -0.058 | pictilisib 0.101 | [3] -0.009 | [4] -0.07 | duvelisib 0.071 | gandotinib -0.05 | tozasertib 0.017 | [5] -0.132 | ispinesib -0.096

— the supplement of paper PMC10849652
